# From patent US12116593B2, “Method for producing adenohypophysis or precursor tissue thereof” (RIKEN, priority 2014, dated 2024)
# At least one structure is not confirmed: it was looked up by name or label, or the drawing left a doubt.
# System: aggregate containing GH-producing cells
# Experiment: In vitro GH release from aggregates containing GH-producing cells, ELISA
# Assay type: cell-based, human
# Conditions: dexamethasone 40 ng/ml days 70-84; GRF 0.1, 1, 10 μg/ml, 30 min; day 84
# Protocol: In addition to the method of Example 10, in vitro hormone secretory capacity was analyzed using the aggregate containing GH-producing cells differentiated in a medium containing hydrocortisone (1 μg/ml) from days 72 to 84 of culture. Using a 1.5 ml Eppendorf tube containing 500 μl of HBSS containing 33 aggregates at day 84 of culture, the aggregates were incubated in the presence or absence of GRF (100 ng/ml) at 37° C. for 30 min. The concentration of GH in the culture supernatant was quantified by the ELISA method.
# In addition to the method of Example 10, in vitro hormone secretory capacity was analyzed using the aggregate containing GH-producing cells differentiated in a medium containing dexamethasone (40 ng/ml) from days 70 to 84 of culture. Using a 1.5 ml Eppendorf tube containing 750 μl of a medium containing 30 aggregates at day 84 of culture, the aggregates were incubated in the presence of GRF (0.1, 1, 10 μg/ml) at 37° C. for 30 min. The concentration of GH in the culture supernatant was quantified by the ELISA method. In addition, in order to investigate a potential of somatostatin to suppress GH secretion, 18 aggregates at day 98 of culture were incubated in the presence or absence of somatostatin (100 ng/ml) at 37° C. for 90 min, and effects on GH release after GRF treatment were analyzed.
smiles,measurement,value
C[C@@H]1C[C@H]2[C@@H]3CCC4=CC(=O)C=C[C@]4(C)[C@@]3(F)[C@@H](O)C[C@]2(C)[C@@]1(O)C(=O)CO [dexamethasone],GH secretion of aggregates differentiated with dexamethasone,GH secretion was found in the culture supernatant in response to GRF
